According to paper PMC3931654:
No constants are given. Whether binding was seen depends on the method and setting. In cells and extracts the contact can be indirect. A result given as binding can be weak or reduced; the word gives no strength.

Target: T1, Themis (thymocyte-expressed molecule involved in selection), endogenous wild type (mouse (endogenous in thymocytes)) (UniProt Q8BGW0)
T1 sequence: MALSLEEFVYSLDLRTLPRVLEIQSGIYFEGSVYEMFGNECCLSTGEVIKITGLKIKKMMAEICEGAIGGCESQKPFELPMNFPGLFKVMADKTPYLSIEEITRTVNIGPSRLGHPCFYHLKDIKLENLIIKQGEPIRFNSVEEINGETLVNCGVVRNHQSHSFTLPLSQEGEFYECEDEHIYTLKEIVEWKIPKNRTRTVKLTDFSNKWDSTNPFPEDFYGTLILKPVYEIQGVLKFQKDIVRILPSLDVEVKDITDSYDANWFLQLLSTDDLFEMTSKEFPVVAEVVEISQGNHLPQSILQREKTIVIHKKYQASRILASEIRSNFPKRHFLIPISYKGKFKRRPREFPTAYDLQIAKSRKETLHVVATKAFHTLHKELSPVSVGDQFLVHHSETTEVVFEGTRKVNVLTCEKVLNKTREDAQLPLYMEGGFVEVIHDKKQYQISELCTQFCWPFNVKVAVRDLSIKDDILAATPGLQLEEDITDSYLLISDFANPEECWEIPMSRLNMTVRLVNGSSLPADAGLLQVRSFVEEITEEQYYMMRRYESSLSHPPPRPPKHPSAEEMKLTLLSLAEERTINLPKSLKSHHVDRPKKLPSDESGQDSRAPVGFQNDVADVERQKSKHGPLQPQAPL
Assay: co-IP; mouse thymocytes, unstimulated or stimulated with anti-CD3 plus anti-CD4 (Fig. S3: also anti-CD8) antibodies; lysis buffer 50 mM Tris-HCl pH 7.5, 150 mM NaCl, 10 mM MgCl2, 0.5% Nonidet P-40; immunoprecipitated with anti-Themis antibody on protein G-sepharose, immunoblot

With SOS (mouse (endogenous in thymocytes)) the binding was “binds”.
